{"source": "patent US4816449A", "about": "(Immunetech Pharmaceuticals, priority 1986, dated 1989)", "note": "Some peptides are written in HELM: one residue between dots, names in brackets for other building blocks, links after the first $. Where no end group is shown, it is not given here. The star is where a group is joined. Boc = CC(C)(C)OC(=O)*", "data": [{"assay": "solution-phase peptide synthesis", "details": "late stage modification step", "values": [{"substance": "Asp-Thr-Asp-Pro-Arg", "step yield": "about 60-80%"}, {"substance": "Boc-DTDPR", "step yield": "about 40-60%"}]}, {"assay": "solution-phase peptide synthesis", "details": "whole synthesis, overall", "values": [{"substance": "Asp-Ser-Asp-Ala-Arg", "isolated yield": "about 25%"}, {"substance": "Asp-Thr-Asp-Pro-Arg", "isolated yield": "approximately 20%"}, {"substance": "PEPTIDE1{D.S.D.P.R}$$$$V2.0", "isolated yield": "about 18%"}, {"substance": "PEPTIDE1{D.S.E.P.R}$$$$V2.0", "isolated yield": "about 20%"}]}]}
